Laboratory results as given in US20240018247A1 (MUSC FOUNDATION FOR RESEARCH DEVELOPMENT, published 2024).
Results are given in words; binding and its absence hold for the method and conditions named. Some results given as binding are weak or reduced against the parent protein; the word gives no strength. Sequences can lack the tags named with a protein.

Molecular target: T1, recombinant mouse P-selectin-Ig (BD Biosciences) (mouse) (UniProt Q01102)
T1 sequence (looked up): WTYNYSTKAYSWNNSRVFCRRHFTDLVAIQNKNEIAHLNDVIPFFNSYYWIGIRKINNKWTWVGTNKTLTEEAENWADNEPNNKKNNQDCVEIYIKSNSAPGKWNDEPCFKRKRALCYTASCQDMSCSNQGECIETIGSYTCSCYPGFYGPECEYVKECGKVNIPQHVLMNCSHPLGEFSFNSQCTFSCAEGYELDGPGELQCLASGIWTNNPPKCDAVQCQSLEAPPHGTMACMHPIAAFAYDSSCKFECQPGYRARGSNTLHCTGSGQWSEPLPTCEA
Assay: ELISA, mouse P-selectin-Ig as capture antigen, anti-His tag detection

- binding: binds
B1: NB.PSelscFv-Crry (anti-pselectin 2.3scFv-Crry, non-blocking) (scFv)
chain: QIQLVLSGPELKKPGESVKISCKASGYTFTTYGMSWVKQAPGKGLKWMGWINTSSGVPTYADDFKGRFAFSLETSASTAYLQINNLKNEDTATYFCARGGGYYGAYYFYYWGQGTTLTVSSGGGGSGGGGSGGGGSDIQMTQSPASLSASVGETVTITCRTSDNINSYLAWYLQRQGKSPQLLVYNAKTLTEGVPSRFSGSGSGTQFSLKINSLQPEDFGSYYCQHHYGPPPTFGGGTKLEIKGGGGSGGGGSCPAPSQLPSAKPINLTDESMFPIGTYLLYECLPGYIKRQFSITCKQDSTWTSAEDKCIRKQCKTPSDPENGLVHVHTGIQFGSRINYTCNQGYRLIGSSSAVCVITDQSVDWDTEAPICEWIPCEIPPGIPNGDFFSSTREDFHYGMVVTYRCNTDARGKALFNLVGEPSLYCTSNDGEIGVWSGPPPQCIELNKCTPPPYVENAVMLSENRSLFSLRDIVEFRCHPGFIMKGASSVHCQSLNKWEPELPSCFKGVICRLPQEMSGFQKGLGMKKEYYYGENVTLECEDGYTLEGSSQSQCQSDGSWNPLLAKCVSRSIIEGRHHHHHH
notes: also called Psel.NB; Psel-NB
